## Screening data

From PubChem BioAssay record AID1159506 (NCATS, 2015).

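Genome-wide siRNA knockdown in TC32 Ewing sarcoma cells, comparing luciferase light from an NR0B1-promoter reporter with a CMV-promoter reporter 48 hours after transfection. Each siRNA was applied at 20 nM. A z-score of the log NR0B1-over-CMV signal, less the median of siRNAs with the same seed; more negative means a stronger specific loss of the NR0B1 reporter.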

This is part of the screen; most of the strongest results are not listed here. Sequences are the guide (antisense) strand, without overhang.

* UCAGUCUCGGGAACUGUUG against ZNF777 | seed-corrected z-score 0.009307
* UCAUAUACAAGUAGCACUG against MAK16 | seed-corrected z-score -1.276
* UUUGCUUUUACUGACCAUG against MAPT | seed-corrected z-score -1.147
* UUUGUAUCAAUGUCAUAAC against MKLN1 | seed-corrected z-score -1.065
* UAGAUUUCUACAAUCCUCG against GCH1 | seed-corrected z-score 0.1581
* UCUCCUAUCCGAGCUUUGG against GABARAP | seed-corrected z-score 0.3124
* UAUCCGUUAUCCACUCUCC against PRR23C | seed-corrected z-score -0.3917
* AUAAUCAGCAUGAUCAUGC against GSR | seed-corrected z-score -0.1266
* UGAACUUUGACUGAACAUC against ZNF594 | seed-corrected z-score -0.8991
* UACCCUUGAGCUUCUAACC against BRD1 | seed-corrected z-score 0.8447
* AAGAUUCCCAGAUAGAAGU against IGLL3P | seed-corrected z-score -1.099
* AUCCAAACCACUGAAACCU against COL1A1 | seed-corrected z-score -0.1202
* UCAUUGAACAAAUACCAUC against ZNF460 | seed-corrected z-score -0.03281
* UUAGAUCUAGUAGAGGUAC against THNSL1 | seed-corrected z-score -0.3671
* UUUGUCUACACGGAGUUUC against TCF19 | seed-corrected z-score -0.7039
* UACCCAGUAGGUGUAGUCC against PTPRH | seed-corrected z-score -0.1156
* UUAGUAGUGCCCACCACCA against KRT86 | seed-corrected z-score -0.05925
* UUGUUGUCUAGCAUGAGGC against MFHAS1 | seed-corrected z-score -0.3482
* AUUCGAAUCUGAUAGGUGG against PIK3R4 | seed-corrected z-score 0.0641
* UCUGGUACAUGGAAAAGGA against TMEM120A | seed-corrected z-score 0.9464
* UUUGGUACUUGUGAGGGCC against TBC1D10C | seed-corrected z-score -1.596
* UUUGGGUGUGGAAUUGUGG against CACNG3 | seed-corrected z-score -1.374
* UAUUCGACAACCAACAAAU against GPR143 | seed-corrected z-score 0.004609
* UAUGUUUAUUCAGUCUGUG against ZNF962P | seed-corrected z-score -0.909
* AAGUAGAGCAGCAAAGUUC against SMDT1 | seed-corrected z-score 1.316
* UGUUGGGUAAGGGAACUUG against ZHX1 | seed-corrected z-score -0.3699
* AUGGGCAUCACGACUAUCC against HDAC7 | seed-corrected z-score 0.329
* UUUGUUCAAAUCGUUCAUC against BIN2 | seed-corrected z-score -0.5156
* UUCCAAUCAUGAUAGAAGC against OLA1 | seed-corrected z-score -0.2215
* UGAUGUUCGACAGAGUCAG against CEACAM22P | seed-corrected z-score -1.996

3 of the entries, repeated:

UUUGGUACUUGUGAGGGCC against TBC1D10C gave seed-corrected z-score -1.596.
UACCCUUGAGCUUCUAACC against BRD1 gave seed-corrected z-score 0.8447.
AAGUAGAGCAGCAAAGUUC against SMDT1 gave seed-corrected z-score 1.316.